# Reference: publication PMC7819943, “Rice protein-binding microarrays: a tool to detect cis-acting elements near promoter regions in rice”
# Amino acid sequences for entries named in this document (tags omitted).
# UniProt Q0JBA9, entry or part of it: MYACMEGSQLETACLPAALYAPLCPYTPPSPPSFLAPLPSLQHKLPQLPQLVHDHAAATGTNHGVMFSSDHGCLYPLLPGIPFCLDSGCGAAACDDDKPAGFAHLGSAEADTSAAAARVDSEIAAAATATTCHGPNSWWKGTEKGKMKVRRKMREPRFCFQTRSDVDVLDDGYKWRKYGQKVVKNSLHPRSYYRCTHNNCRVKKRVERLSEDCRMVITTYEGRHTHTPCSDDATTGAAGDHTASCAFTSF
# The other results are listed elsewhere or left out.
# Biological target: OsWRKY34 (Oryza sativa, UniProt Q0JBA9 1-250)
# Assay: protein-binding microarray (RPBM); PBS, 2% BSA, 51.3 ng/ul salmon testes DNA, 50 uM zinc acetate, 200 nM TF, 25 C, 1 h; high values mean tight binding
# Details: protein: recombinant; tags: N-terminal polyhistidine and DsRed monomer fusion (pET32a); label: CyDye5-dUTP incorporated in the synthesized complementary strand; 3' TTTTT single-stranded linker to array surface; dsDNA, one strand shown
# Method in brief: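 The binding signal is fluorescence intensity per feature, in arbitrary units, read on an Axon 4000B scanner. Polyhistidine- and DsRed-tagged transcription factors (N-terminal fusions) from E. coli BL21-CodonPlus were purified on Ni–NTA and applied at 200 nM for 1 h at 25 °C to a double-stranded, BSA-blocked custom Agilent array in buffer with 50 µM zinc acetate.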
row,Sequence,binding signal
1,CTATTCTTGTCGTTACTCCTCCCTCCACTTTCTCGCGGTCCGGAGTCACCTAGTGCAG,9190 fluorescence intensity (a.u.)
2,TTTTGGATGGTGGTTTCGCTAACATGGCGTCTACGTGGCACGGAGTCACCTAGTGCAG,8310 fluorescence intensity (a.u.)
3,TTCGCGTTGCCGCGTTCGTCTCCTTGGCATCTGATCCTATCGGAGTCACCTAGTGCAG,8240 fluorescence intensity (a.u.)
4,GCAAGAAGGGAAGGGAAGGGGACTAGGGGAGGGCGAGATGCGGAGTCACCTAGTGCAG,8040 fluorescence intensity (a.u.)
5,GGCAGGGAGGGAGGGCGGCGGTACGGGCGGCGGCGCGCACCGGAGTCACCTAGTGCAG,14800 fluorescence intensity (a.u.)
6,CCACCCATCCGGCCGTAACCCGCTGTCCACCATAATCCTGCGGAGTCACCTAGTGCAG,8980 fluorescence intensity (a.u.)
7,TCCCCACCTCCACTCCCTTCCTCATTGCACACACGAGAAACGGAGTCACCTAGTGCAG,10700 fluorescence intensity (a.u.)
8,CTTATCCGGAATTCCCTCCATACCCGAGGTCGGATTCCGTCGGAGTCACCTAGTGCAG,8500 fluorescence intensity (a.u.)
9,TGGACTTGGAGTTGTAATAGGTGGTAGGGGTGGAGATAAACGGAGTCACCTAGTGCAG,8570 fluorescence intensity (a.u.)
10,AGCTGAGCTGCGAGCTCTCTCTCTCTTTCTCTCGGCAGCTCGGAGTCACCTAGTGCAG,8580 fluorescence intensity (a.u.)
11,CTCATCCAAATTTGTGTTTATAAATGTACTATATATATTTCGGAGTCACCTAGTGCAG,8420 fluorescence intensity (a.u.)
12,GCAGTGAACATGGCCACGGCCGGTGCTTGTGGTTTGACTACGGAGTCACCTAGTGCAG,8380 fluorescence intensity (a.u.)
13,TAGCAGCCAATTAGTCCACTTAATCACCCATGGATCGCGACGGAGTCACCTAGTGCAG,8280 fluorescence intensity (a.u.)
14,ATATACAGCCATATACTACTACCACCACCACTTAAGTTCACGGAGTCACCTAGTGCAG,8800 fluorescence intensity (a.u.)
15,CACTAACGCTCACACACACTAGGCTCCAACACCAACCCAACGGAGTCACCTAGTGCAG,9190 fluorescence intensity (a.u.)
16,GATTCACCGTCGCGCCGCCGCCGCATGCTCTGCTCTCTCGCGGAGTCACCTAGTGCAG,10300 fluorescence intensity (a.u.)
17,GCATCCGTGTCCTTTGCCGAAGCCGAAGGCCCGCTCTCTCCGGAGTCACCTAGTGCAG,8900 fluorescence intensity (a.u.)
18,CCTCGCCTCTCTCTCTCTCTCTCTTTCTCTGCTCTCTCTGCGGAGTCACCTAGTGCAG,10200 fluorescence intensity (a.u.)
19,ACCGCACAGGACGAGGACCACCACCACCTCGCTTTCCATTCGGAGTCACCTAGTGCAG,9010 fluorescence intensity (a.u.)
20,GCTCCTTAACAATCTGCACTTTCTTTTTTGCATAAACACACGGAGTCACCTAGTGCAG,8080 fluorescence intensity (a.u.)
21,CTAACAACCTGCTGGCGACTTATTCTCCACACCGTTGCAACGGAGTCACCTAGTGCAG,8250 fluorescence intensity (a.u.)
22,CTTAATTACGTCATCGTCAACTCGCCGTTTAGTTTAGTCTCGGAGTCACCTAGTGCAG,9910 fluorescence intensity (a.u.)
23,CCAGTGGCAATCCTTGACACTTGGTCACAATTTTCTCTGCCGGAGTCACCTAGTGCAG,8270 fluorescence intensity (a.u.)
24,CTCGTACTAGGGTGTCATGCTGTTGGTTCCGGTGAATCTTCGGAGTCACCTAGTGCAG,8270 fluorescence intensity (a.u.)

row,Sequence,binding signal
1,GCTTGGGGACGGCGGGGTGGTGGCGCTCACGCCCGCGGCGCGGAGTCACCTAGTGCAG,9540 fluorescence intensity (a.u.)
2,CGTCTTATTGTTGGTCGTTGACAAGTTTTGGTTGGGCATGCGGAGTCACCTAGTGCAG,9490 fluorescence intensity (a.u.)
3,TTGTTTGATATGTGCTTTTGTTATTGTTTCCTGCACATCACGGAGTCACCTAGTGCAG,13700 fluorescence intensity (a.u.)
4,CACCCAAAACTTAACGCTTCCCAGTTCCGTTTCCCACACTCGGAGTCACCTAGTGCAG,8420 fluorescence intensity (a.u.)
5,TTATACCCTTCTGGTTGTTTCATGACTGTCTGTTTGAATTCGGAGTCACCTAGTGCAG,13100 fluorescence intensity (a.u.)
6,CCCAACCTCGCCGTCGCCGTCGCCGTCGCCGCCGTCTCCGCGGAGTCACCTAGTGCAG,10000 fluorescence intensity (a.u.)
7,TGCCATGTGTATAGGGTGGTTGGTGGCCGCCTTGGGGATTCGGAGTCACCTAGTGCAG,8280 fluorescence intensity (a.u.)
8,TGCAGATATTGGCATCGATTGCTCACTTCAGGTGATTTTTCGGAGTCACCTAGTGCAG,8060 fluorescence intensity (a.u.)
9,GTTGTGTGTTCTTCTAGGGGATTCTCTCCCCGGCGATTCTCGGAGTCACCTAGTGCAG,10100 fluorescence intensity (a.u.)
10,CACGGCACCACACACACACACGTCCCGGGCCCCGTCCACCCGGAGTCACCTAGTGCAG,8990 fluorescence intensity (a.u.)
11,AAGATACGTTGACTTAGTCTTCCGGAGGTGCTCATATGGACGGAGTCACCTAGTGCAG,9630 fluorescence intensity (a.u.)
12,TGGATATCCGTGCCCAACGTTTGACCATCCGTCTTATTTGCGGAGTCACCTAGTGCAG,8130 fluorescence intensity (a.u.)
13,GGCGGCGGCGGCGGCGGCGGGGAGGAGGTGAAGGTGGAGGCGGAGTCACCTAGTGCAG,14100 fluorescence intensity (a.u.)
14,GAACCGGTCGCCGTCCACCGCTGCATCCATCCGTCCATGTCGGAGTCACCTAGTGCAG,11600 fluorescence intensity (a.u.)
15,GGGATGGATTGGTGGGGAGGATGCTAACAAGTGGTGGAGACGGAGTCACCTAGTGCAG,13600 fluorescence intensity (a.u.)
16,TTTCTATTTGGCACGTGATCCTCATTTATCATGCATTTACCGGAGTCACCTAGTGCAG,11200 fluorescence intensity (a.u.)
17,GCCCATTTGTCCGAAGAGCTCCTCCGGCGAGTCCCCAACACGGAGTCACCTAGTGCAG,9860 fluorescence intensity (a.u.)
18,CACTTATTTATCCTGTTTAGGTAACTTCACTCGAATCATTCGGAGTCACCTAGTGCAG,9510 fluorescence intensity (a.u.)
19,AACATCTTCGCGAGTGTTGCTCTCTTTCGTGCCCTCTCTTCGGAGTCACCTAGTGCAG,8050 fluorescence intensity (a.u.)
20,ATCCTACCCGTTGCTTCGGCTTCTCTCTCAGCCCAAACATCGGAGTCACCTAGTGCAG,8270 fluorescence intensity (a.u.)
21,TTGTGTTCTTCTCCTCTTACTAATACGTTGTCCGCAAATTCGGAGTCACCTAGTGCAG,9090 fluorescence intensity (a.u.)
22,ATACTATATACTACTAGTACTACTACCTCTTTGTTTCTCTCGGAGTCACCTAGTGCAG,8550 fluorescence intensity (a.u.)
23,TCCACTCCACGCACACATCGACGATCTCTCCTTGTTTTTTCGGAGTCACCTAGTGCAG,10900 fluorescence intensity (a.u.)
24,GAACGGGAACACGATCTAACCTCTGCAATCCCCACGCCGCCGGAGTCACCTAGTGCAG,8350 fluorescence intensity (a.u.)

# Some of the entries so far, with bars between the fields:
row | Sequence | binding signal
2 | CGTCTTATTGTTGGTCGTTGACAAGTTTTGGTTGGGCATGCGGAGTCACCTAGTGCAG | 9490 fluorescence intensity (a.u.)
7 | TGCCATGTGTATAGGGTGGTTGGTGGCCGCCTTGGGGATTCGGAGTCACCTAGTGCAG | 8280 fluorescence intensity (a.u.)
11 | AAGATACGTTGACTTAGTCTTCCGGAGGTGCTCATATGGACGGAGTCACCTAGTGCAG | 9630 fluorescence intensity (a.u.)
12 | TGGATATCCGTGCCCAACGTTTGACCATCCGTCTTATTTGCGGAGTCACCTAGTGCAG | 8130 fluorescence intensity (a.u.)
14 | GAACCGGTCGCCGTCCACCGCTGCATCCATCCGTCCATGTCGGAGTCACCTAGTGCAG | 11600 fluorescence intensity (a.u.)
17 | GCCCATTTGTCCGAAGAGCTCCTCCGGCGAGTCCCCAACACGGAGTCACCTAGTGCAG | 9860 fluorescence intensity (a.u.)
23 | TCCACTCCACGCACACATCGACGATCTCTCCTTGTTTTTTCGGAGTCACCTAGTGCAG | 10900 fluorescence intensity (a.u.)
24 | GAACGGGAACACGATCTAACCTCTGCAATCCCCACGCCGCCGGAGTCACCTAGTGCAG | 8350 fluorescence intensity (a.u.)
